Laboratory results reported in paper PMC6825134.
Results are given in words; binding and its absence hold for the method and conditions named. Binding seen in cells or lysates may run through a third protein. Some results given as binding are weak or reduced against the parent protein; the word gives no strength.

Protein sequences, listed by entry. Tags and fused reporters are not part of them.
UniProt Q9Y5W3: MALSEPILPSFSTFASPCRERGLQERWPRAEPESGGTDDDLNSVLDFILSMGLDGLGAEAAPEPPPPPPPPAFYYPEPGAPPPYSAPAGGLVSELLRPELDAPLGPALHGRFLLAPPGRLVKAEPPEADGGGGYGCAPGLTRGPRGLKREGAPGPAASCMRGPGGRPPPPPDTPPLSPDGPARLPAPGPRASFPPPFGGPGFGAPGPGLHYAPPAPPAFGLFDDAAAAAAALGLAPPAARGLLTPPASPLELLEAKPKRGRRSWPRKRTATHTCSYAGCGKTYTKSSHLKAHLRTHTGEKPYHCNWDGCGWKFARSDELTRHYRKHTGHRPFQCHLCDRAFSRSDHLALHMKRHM

Target: Krüppel-like factor 2 (KLF2) (human (endogenous in HUVEC)) (UniProt Q9Y5W3)
Assay: proximity ligation; confluent HUVEC, fixed with 4% paraformaldehyde, permeabilized with 0.5% Triton, blocked with 3% BSA; anti-ERG (mouse) and anti-KLF2 (rabbit) antibodies, Duolink In Situ Orange Kit Mouse/Rabbit; cells static or under low (5 dynes per cm^2) or high (20 dynes per cm^2) shear stress for 24 h

B1: ETS-related gene (ERG) transcription factor (protein, UniProt P11308 1-479)
chain: MASTIKEALSVVSEDQSLFECAYGTPHLAKTEMTASSSSDYGQTSKMSPRVPQQDWLSQPPARVTIKMECNPSQVNGSRNSPDECSVAKGGKMVGSPDTVGMNYGSYMEEKHMPPPNMTTNERRVIVPADPTLWSTDHVRQWLEWAVKEYGLPDVNILLFQNIDGKELCKMTKDDFQRLTPSYNADILLSHLHYLRETPLPHLTSDDVDKALQNSPRLMHARNTGGAAFIFPNTSVYPEATQRITTRPDLPYEPPRRSAWTGHGHPTPQSKAAQPSPSTVPKTEDQRPQLDPYQILGPTSSRLANPGSGQIQLWQFLLELLSDSSNSSCITWEGTNGEFKMTDPDEVARRWGERKSKPNMNYDKLSRALRYYYDKNIMTKVHGKRYAYKFDFHGIAQALQPHPPESSLYKYPSDLPYMGSYHAHPQKMNFVAPHPPALPVTSSSFFAAPNPYWNSPTGGIYPNTRLPTSHMPSHLGTYY
- binding: binds
